Measured values: patent US20140050732A1
No constants are given. Whether binding was seen depends on the method and setting. Some results given as binding are weak or reduced against the parent protein; the word gives no strength.

What was measured:
[1] = target: T1, bovine CD40 receptor (Bos taurus (bovine)) (UniProt Q28203); experiment: flow cytometry on bovine CD40-transfected COS-7 cells
T1 sequence: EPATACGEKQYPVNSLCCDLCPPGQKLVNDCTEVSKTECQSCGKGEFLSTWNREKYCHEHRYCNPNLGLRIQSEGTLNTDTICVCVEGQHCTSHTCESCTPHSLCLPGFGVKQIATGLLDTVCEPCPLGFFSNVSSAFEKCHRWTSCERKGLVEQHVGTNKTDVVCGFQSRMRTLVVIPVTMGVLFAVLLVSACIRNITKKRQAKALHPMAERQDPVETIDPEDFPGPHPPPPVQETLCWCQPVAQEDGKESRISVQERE

[2] = target: T1, bovine CD40 receptor (Bos taurus (bovine)); experiment: western blot of bovine PBMC lysates with purified monoclonal antibodies
[3] = target: T1, bovine CD40 receptor (Bos taurus (bovine)); experiment: flow cytometry, surface staining of bovine CD40-transfected COS-7 cells

binding [1]: binds | binding [2]: binds | binding [3]: binds
B1: E1 monoclonal anti-bovine CD40 antibody (antibody, V domains shown)
VH: EVKLVESGGVLVKPGGSLKLSCAASGFTFSSYAMSWVRQTPEKRLEWVASIGSGGGTYYPDSVKGRFTISRNNARNILYLQMSSLRSEDTAMYYCARAYYRNHRGSVMDYWGQGTSVTVSS
VL: DIVLTQSPASLAVSLGQRATISCKASQTVDYDGDSYMNWYQQKPGQPPKVLIYSASNLESGIPARFSGSGSGTDFTLNIHPVEEEDAATYYCQQSTEDPPTFGGGTKLEIK
